Experimental data published in patent publication US20180118837A1 (Hoffmann-La Roche, published 2018).
These are yes or no findings as the source states them, for the method shown. Binding calls can cover weak binding; strength is not graded here.

Experiments:
[1] = target: SBP-tagged HER3-ECD (human); assay: ELISA-type assay on plate-bound SBP-tagged HER3-ECD
[2] = target: SBP-tagged HER3-ECD (human); assay: ELISA-type assay: SBP-tagged HER3-ECD on streptavidin plate, antibody titrated in the presence of 10 nM Europium-labeled Heregulin-beta, time-resolved fluorescence; the antibody promotes the binding of the ligand
[3] = target: SBP-tagged HER3-ECD (human); assay: ELISA-type assay (legend of FIG. 14)

Measured: binding

B1: anti-HER3/HER4 antibody M-05-74 (antibody, V domains shown)
VH: QVQLQQSGAELAKPGASVKMSCKTSGYTLTDYWIHWVKQRPGQGLEWIGYINPYTGYTESNQKFKDKATLTADKSSNTAYIQLSSLTSEDSAVYYCARPYYYGDYWGQGTTLTVSS
VL: QIVLTQSPAIMSASPGERVTITCSASSSVSYMHWFQQKPGTSPKLLIYSTSNLASGVPARFSGSGSGTSYSLTISRMEAEDAATYYCQQRSSYPFTFGSGTKLEIK
notes: Murine monoclonal antibody from hybridoma (culture supernatant or purified full length); also called M-074; M-5-74
binds: all assays above
